Experimental data: patent US20260256820A1, “AN ANTI-INFECTIVE AGENT, METHOD OF TREATMENT, AND USE THEREOF” (SASTRA DEEMED UNIVERSITY, priority 2022, published 2026)
At least one structure is not confirmed: it was looked up by name or label, or the drawing left a doubt.

Columns and labels:
Assay type in all cases: cell-based, Candida albicans
[1] = tested on: C.albicans (ATCC SC5314, ATCC 90028, clinical isolate, BF1); test: adhesion and invasion light microscopy; details: about 200 nM SC5314, about 90 nM ATCC 90028 and BF1
[2] = tested on: C.albicans (ATCC SC5314, ATCC 90028, clinical isolate, BF1); test: filamentation inhibition in hyphal-inducing media; details: nanomolar concentrations (about 200 nM SC5314, about 90 nM ATCC 90028 and BF1), about 24 hours
[3] = tested on: biofilm, hyphal, and virulence genes of C.albicans; test: qRT-PCR analyses of biofilm, hyphal, and virulence genes

C[C@H]1O[C@H](O[C@H]2[C@H](O)[C@@H](O)[C@@H](O[C@H]3[C@H](O)[C@@H](O)C(O)O[C@@H]3CO)O[C@@H]2CO)[C@H](O)[C@@H](O)[C@@H]1N[C@H]1C=C(CO)[C@@H](O)[C@H](O)[C@H]1O (stereo partly drawn) [anti-infective agent, acarbose]
adhesion and invasion (germ tube formations) [1]: shorter germ tube formations (reduced adhered and invaded fungal cells) | filamentation [2]: visibly impair filamentation | expression of considered genes (BGL2, PHR1, PHR2, Ume6, Efg, Rbt1, Ras1, CDR, MDR, Erg1, SOD1) ([3]; ITS housekeeping gene, 2^−ΔΔCt method, triplicates): downregulated | sensitivity of clinical isolate BF1 to treatment ([3]; qRT-PCR, compared with other strains): more sensitive
